Measurements taken from patent US20040081712A1, “Substance for treatment of non-insulin dependent diabetes mellitus, hypertension and/or the metabolic syndrome” (priority 2001, published 2004).
Some of these results come from one statement about several compounds together.

Test system: isolated mouse islets
Experiment: insulin secretion from isolated mouse islets
Format: cell-based
Conditions: for concentration at which a stimulatory effect was found: further tests; for glucose level at and above which insulin secretion was potentiated: glucose 0 to 16.7 mmol/l, maximal stimulatory dose
Description: Islet from 6-10 NMRI mice were isolated and incubated in the presence of 16.7 mmol/l and 10^−9-10^−3 mol/l stevioside or 10^−9-10^−3 mol/l steviol. The results of these tests are illustrated in FIGS. 4a and 4b where each column represents mean±SEM from 24 incubations of single islets. Black bars in FIG. 4a indicate that stevioside is present and hatched bars indicate that stevioside is absent. Grey bars in FIG. 4b indicate that steviol is present and hatched bars indicate that steviol is absent. The influence of the maximal stimulatory doses of 10^−3 mol/l stevioside and 10^−6 mol/l steviol was studied in NMRI mouse islets over a range between 0 and 16.7 mmol/l glucose. […] Black bars in FIG. 7a indicate that stevioside is present and hatched bars indicate that stevioside is absent. Grey bars in FIG. 7b indicate that steviol is present and hatched bars indicate that steviol is absent.

Structure (SMILES) | concentration at which a stimulatory effect was found | glucose level at and above which insulin secretion was potentiated [mmol/L]
C=C1C[C@@]23CC[C@H]4[C@@](C)(CCC[C@@]4(C)C(=O)O)[C@@H]2CC[C@]1(O)C3 [steviol] | above 0.1 nM | ≥ 8.3
C=C1C[C@@]23CC[C@H]4[C@@](C)(CCC[C@@]4(C)C(=O)O[C@@H]4O[C@H](CO)[C@@H](O)[C@H](O)[C@H]4O)[C@@H]2CC[C@]1(O[C@@H]1O[C@H](CO)[C@@H](O)[C@H](O)[C@H]1O[C@@H]1O[C@H](CO)[C@@H](O)[C@H](O)[C@H]1O)C3 [stevioside] | above 0.1 nM | ≥ 8.3
